Among the data in the supplement of paper PMC12595434, “Development of retinoid nuclear receptor pathway antagonists through targeting aldehyde dehydrogenase 1A3” (iScience, 2025) are melting temperature shift values, retold here.

By UniProt entry, the sequences of proteins in these tests, tags left out. Where a name states a change or a piece, a line headed by the entry shows the natural chain unless it says otherwise.
UniProt P31930: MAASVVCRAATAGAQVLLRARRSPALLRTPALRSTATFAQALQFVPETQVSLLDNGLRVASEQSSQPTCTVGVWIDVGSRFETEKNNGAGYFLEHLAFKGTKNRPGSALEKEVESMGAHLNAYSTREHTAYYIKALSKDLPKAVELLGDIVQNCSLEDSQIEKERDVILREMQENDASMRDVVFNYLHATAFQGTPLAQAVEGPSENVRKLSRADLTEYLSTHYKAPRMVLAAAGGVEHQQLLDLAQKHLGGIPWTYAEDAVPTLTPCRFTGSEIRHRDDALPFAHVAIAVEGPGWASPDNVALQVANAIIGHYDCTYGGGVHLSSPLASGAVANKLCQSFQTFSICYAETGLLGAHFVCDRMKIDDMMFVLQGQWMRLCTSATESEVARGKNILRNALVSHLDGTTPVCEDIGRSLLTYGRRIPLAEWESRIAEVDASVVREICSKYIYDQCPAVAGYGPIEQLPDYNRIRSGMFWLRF
UniProt P35080, whole entry: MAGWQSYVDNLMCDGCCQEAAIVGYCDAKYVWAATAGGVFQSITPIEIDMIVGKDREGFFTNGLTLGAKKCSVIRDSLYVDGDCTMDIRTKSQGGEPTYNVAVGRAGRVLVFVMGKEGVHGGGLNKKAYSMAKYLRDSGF
UniProt P29597: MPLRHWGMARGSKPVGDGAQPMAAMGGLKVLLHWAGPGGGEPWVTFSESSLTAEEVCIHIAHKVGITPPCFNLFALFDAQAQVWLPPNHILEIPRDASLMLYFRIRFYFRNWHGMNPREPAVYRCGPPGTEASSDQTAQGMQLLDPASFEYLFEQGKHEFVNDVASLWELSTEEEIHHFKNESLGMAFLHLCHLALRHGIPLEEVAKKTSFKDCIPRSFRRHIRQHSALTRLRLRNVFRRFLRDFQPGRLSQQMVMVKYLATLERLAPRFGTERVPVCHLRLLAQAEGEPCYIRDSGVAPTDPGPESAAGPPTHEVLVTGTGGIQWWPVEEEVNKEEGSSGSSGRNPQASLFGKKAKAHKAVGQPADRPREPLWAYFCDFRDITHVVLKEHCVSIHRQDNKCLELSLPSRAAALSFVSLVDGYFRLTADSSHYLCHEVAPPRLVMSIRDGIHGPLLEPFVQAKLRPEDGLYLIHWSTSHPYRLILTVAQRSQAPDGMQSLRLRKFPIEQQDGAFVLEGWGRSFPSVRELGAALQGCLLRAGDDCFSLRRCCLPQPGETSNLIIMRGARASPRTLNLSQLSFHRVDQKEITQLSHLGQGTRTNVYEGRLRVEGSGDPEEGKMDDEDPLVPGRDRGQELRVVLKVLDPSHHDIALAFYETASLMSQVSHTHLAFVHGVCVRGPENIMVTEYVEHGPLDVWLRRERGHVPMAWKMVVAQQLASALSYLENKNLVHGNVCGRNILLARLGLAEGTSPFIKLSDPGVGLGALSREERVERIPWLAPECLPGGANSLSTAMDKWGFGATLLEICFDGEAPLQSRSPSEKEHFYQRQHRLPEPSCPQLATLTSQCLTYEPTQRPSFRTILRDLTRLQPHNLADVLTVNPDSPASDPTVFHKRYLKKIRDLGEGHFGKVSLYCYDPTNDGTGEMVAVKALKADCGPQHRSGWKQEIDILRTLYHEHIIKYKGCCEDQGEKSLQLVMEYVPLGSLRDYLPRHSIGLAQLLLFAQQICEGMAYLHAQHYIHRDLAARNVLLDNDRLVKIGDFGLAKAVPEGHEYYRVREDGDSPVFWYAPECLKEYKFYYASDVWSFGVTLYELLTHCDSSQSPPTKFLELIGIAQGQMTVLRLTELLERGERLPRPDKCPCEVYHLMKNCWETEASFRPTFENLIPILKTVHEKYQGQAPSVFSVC
UniProt P23378: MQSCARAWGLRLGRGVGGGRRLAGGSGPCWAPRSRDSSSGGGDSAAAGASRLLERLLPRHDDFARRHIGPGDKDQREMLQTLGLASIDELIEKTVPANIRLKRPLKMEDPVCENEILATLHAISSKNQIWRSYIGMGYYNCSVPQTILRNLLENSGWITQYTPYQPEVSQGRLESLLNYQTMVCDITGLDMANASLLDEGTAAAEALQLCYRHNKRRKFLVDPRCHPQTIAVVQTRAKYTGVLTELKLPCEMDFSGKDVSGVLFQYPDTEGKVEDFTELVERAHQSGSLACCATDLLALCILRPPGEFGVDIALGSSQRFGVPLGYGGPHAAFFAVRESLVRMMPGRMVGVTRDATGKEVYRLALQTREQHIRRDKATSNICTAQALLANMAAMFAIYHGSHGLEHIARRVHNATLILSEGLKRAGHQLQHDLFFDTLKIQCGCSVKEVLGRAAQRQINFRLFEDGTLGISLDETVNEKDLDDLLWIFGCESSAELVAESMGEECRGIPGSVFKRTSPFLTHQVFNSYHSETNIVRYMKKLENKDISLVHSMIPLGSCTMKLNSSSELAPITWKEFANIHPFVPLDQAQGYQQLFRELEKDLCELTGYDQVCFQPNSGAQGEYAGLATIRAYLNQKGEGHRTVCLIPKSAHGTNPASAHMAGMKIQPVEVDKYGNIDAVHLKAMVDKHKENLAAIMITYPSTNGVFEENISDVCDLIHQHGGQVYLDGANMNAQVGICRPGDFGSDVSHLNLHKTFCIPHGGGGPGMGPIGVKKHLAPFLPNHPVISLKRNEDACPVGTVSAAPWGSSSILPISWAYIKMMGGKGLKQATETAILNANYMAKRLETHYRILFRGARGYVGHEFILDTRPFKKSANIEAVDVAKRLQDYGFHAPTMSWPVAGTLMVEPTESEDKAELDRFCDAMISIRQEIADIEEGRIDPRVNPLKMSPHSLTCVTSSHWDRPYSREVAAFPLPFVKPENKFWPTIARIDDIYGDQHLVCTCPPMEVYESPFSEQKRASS
UniProt P21127: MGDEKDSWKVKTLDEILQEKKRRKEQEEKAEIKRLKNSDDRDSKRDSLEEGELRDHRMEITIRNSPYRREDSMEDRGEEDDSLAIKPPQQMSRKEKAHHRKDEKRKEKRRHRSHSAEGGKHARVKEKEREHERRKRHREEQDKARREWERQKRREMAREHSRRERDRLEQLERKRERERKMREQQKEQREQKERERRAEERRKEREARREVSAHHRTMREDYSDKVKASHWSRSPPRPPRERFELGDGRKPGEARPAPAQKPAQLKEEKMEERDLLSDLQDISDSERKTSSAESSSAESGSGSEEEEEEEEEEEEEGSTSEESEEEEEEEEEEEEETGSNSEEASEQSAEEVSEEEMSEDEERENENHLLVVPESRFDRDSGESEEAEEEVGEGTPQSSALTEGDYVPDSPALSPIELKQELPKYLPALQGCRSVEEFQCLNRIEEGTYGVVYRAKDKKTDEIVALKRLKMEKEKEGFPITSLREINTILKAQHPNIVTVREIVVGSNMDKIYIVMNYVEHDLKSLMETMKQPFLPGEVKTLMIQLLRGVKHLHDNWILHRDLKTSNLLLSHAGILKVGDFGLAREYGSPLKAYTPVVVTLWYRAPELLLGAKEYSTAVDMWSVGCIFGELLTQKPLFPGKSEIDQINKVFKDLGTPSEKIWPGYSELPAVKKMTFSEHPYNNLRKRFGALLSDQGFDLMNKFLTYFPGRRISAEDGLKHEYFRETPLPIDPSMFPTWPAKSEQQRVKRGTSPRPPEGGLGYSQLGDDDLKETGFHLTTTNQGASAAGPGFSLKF
UniProt P35222, whole entry: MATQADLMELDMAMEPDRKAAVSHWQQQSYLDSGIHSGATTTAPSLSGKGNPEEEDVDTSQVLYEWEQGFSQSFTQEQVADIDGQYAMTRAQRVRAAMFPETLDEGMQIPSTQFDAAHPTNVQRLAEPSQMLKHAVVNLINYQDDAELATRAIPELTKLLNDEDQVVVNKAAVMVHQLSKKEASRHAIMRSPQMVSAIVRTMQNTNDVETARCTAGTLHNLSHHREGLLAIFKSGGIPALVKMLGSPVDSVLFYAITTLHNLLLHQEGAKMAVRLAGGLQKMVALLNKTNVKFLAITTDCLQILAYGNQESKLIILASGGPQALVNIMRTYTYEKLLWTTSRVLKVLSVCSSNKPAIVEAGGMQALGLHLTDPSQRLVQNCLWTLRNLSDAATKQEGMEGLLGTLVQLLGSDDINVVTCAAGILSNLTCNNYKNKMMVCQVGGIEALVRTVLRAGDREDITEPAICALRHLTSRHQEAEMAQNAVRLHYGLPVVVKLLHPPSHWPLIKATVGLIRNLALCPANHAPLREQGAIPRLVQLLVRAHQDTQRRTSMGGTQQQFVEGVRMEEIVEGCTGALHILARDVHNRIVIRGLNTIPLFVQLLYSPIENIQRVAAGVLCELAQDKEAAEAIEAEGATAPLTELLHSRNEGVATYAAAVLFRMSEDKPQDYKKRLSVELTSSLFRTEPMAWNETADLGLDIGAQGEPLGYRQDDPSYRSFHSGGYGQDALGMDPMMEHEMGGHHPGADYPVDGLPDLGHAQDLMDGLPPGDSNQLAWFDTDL
UniProt P22570: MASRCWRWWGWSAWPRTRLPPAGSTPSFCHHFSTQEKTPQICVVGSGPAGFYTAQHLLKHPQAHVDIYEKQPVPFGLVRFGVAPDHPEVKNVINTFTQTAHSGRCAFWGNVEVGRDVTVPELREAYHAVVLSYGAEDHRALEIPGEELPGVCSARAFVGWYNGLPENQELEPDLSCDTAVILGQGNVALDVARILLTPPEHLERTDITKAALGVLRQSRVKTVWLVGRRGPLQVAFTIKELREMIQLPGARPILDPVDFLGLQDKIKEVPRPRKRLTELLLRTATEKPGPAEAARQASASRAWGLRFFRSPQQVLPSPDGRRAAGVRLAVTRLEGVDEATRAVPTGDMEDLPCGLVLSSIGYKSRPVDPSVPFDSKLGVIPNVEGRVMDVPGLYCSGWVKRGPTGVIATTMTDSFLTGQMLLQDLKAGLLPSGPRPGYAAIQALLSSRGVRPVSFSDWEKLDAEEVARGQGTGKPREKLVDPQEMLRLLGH
UniProt P23258, whole entry: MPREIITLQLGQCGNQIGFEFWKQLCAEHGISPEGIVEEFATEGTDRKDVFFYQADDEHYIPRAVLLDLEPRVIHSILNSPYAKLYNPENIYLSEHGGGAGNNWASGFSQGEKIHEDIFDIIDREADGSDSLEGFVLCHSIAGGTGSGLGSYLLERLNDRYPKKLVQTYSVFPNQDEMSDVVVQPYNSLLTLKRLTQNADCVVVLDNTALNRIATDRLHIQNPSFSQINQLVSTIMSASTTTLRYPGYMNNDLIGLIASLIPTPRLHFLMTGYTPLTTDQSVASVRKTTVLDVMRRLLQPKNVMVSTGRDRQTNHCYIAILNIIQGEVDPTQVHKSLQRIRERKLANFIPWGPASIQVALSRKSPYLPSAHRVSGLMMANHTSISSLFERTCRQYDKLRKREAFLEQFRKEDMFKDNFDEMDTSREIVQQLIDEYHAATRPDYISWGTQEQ
UniProt P27797, whole entry: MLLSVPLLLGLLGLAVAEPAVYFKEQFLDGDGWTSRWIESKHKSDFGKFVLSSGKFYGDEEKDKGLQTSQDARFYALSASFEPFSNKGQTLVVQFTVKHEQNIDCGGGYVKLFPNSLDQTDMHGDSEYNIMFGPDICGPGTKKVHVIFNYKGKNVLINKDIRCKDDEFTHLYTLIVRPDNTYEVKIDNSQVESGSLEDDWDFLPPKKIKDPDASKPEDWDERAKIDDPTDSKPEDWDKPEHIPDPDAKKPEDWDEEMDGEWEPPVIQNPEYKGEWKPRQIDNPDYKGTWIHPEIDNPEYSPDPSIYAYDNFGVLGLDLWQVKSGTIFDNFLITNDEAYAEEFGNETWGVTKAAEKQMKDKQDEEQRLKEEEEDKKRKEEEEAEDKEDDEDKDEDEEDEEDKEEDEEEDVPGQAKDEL
UniProt P22033: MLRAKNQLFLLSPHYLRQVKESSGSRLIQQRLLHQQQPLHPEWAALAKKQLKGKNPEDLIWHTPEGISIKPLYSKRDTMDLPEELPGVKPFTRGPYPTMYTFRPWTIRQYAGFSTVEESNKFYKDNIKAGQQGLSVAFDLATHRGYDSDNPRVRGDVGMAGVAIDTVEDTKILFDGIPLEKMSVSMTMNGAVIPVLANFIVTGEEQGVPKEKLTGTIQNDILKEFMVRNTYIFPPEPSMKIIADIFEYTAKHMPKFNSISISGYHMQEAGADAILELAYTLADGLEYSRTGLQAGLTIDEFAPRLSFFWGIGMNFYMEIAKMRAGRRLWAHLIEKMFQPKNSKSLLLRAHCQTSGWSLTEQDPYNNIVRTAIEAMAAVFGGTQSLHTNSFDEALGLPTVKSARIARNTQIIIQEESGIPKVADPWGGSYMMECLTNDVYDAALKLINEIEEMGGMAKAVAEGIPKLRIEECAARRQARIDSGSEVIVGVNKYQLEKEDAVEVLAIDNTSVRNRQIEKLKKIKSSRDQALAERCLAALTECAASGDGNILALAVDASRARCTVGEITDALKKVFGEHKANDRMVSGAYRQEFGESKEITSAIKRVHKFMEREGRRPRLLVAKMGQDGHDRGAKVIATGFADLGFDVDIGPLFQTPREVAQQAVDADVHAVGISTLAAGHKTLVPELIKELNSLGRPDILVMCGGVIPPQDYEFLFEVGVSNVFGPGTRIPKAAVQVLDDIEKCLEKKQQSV

This is one part of the list. This is a noisy data set.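 Tm was set to 64 °C where no melting was found, and many curves are irregular.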

Compound in one assay: CCc1cnccc1C(=O)Nc1cc2c(cc1F)NC(=O)CC2
Put plainly: melting temperature shift (DMSO Tm minus MBE1-treated Tm) in cellular thermal proteome profiling; higher = less thermal stabilization by MBE1 (negative = stabilized by MBE1). Conditions: A375; MBE1 concentration: 100 nM.
Take UniProt P22304: the melting temperature shift is -4.68 °C.

With RXRB (UniProt P28702), the melting temperature shift is -0.314 °C.

Consider SDHB (UniProt P21912), for which the melting temperature shift is -0.904 °C.

With UniProt P27815, the melting temperature shift was -1.15 °C.

Consider DNMT1 (UniProt P26358), for which the melting temperature shift is -0.523 °C.

Regarding UniProt P27986, the melting temperature shift turned out to be 1.33 °C.

As for SRI (UniProt P30626), the melting temperature shift was -0.759 °C.

Turning to RPL22 (UniProt P35268), the melting temperature shift is -0.775 °C.

Consider ARRB2 (UniProt P32121), for which the melting temperature shift was 0.159 °C.

Take RPA3 (UniProt P35244): the melting temperature shift was -0.36 °C.

As for UQCRC1 (UniProt P31930), the melting temperature shift was -0.44 °C.

Consider RAB5A (UniProt P20339), for which the melting temperature shift is -0.366 °C.

RBMS1 (UniProt P29558): the melting temperature shift amounted to 0.519 °C.

For UniProt P35080, the melting temperature shift was -0.101 °C.

For the target TYK2 (UniProt P29597), the melting temperature shift turned out to be 12 °C.

For the target UniProt P23378, the melting temperature shift was -1.65 °C.

For BCKDHB (UniProt P21953), the melting temperature shift was -0.838 °C.

On to UniProt P21127, for which the melting temperature shift is -0.32 °C.

In the case of UniProt P23443, the melting temperature shift was -0.275 °C.

TTK (UniProt P33981): the melting temperature shift is -1.04 °C.

CTNNB1 (UniProt P35222): the melting temperature shift was -1.24 °C.

For the target DTYMK (UniProt P23919), the melting temperature shift is -1.06 °C.

In the case of FDXR (UniProt P22570), the melting temperature shift was 0.83 °C.

For the target TUBG1 (UniProt P23258), the melting temperature shift is -0.469 °C.

Regarding RASA1 (UniProt P20936), the melting temperature shift turned out to be 0.195 °C.

On to UniProt P31323, for which the melting temperature shift came out at 2.05 °C.

As for ATIC (UniProt P31939), the melting temperature shift was -0.785 °C.

In the case of CALR (UniProt P27797), the melting temperature shift was -0.931 °C.

For MUT (UniProt P22033), the melting temperature shift worked out at 0.556 °C.

Regarding APC (UniProt P25054), the melting temperature shift is -0.134 °C.

Take SCP2 (UniProt P22307): the melting temperature shift was -2.22 °C.

Consider CHML (UniProt P26374), for which the melting temperature shift was -0.798 °C.

Turning to ADD1 (UniProt P35611), the melting temperature shift is -1.65 °C.

As for ITGA6 (UniProt P23229), the melting temperature shift is -1.07 °C.

Regarding GTF2E1 (UniProt P29083), the melting temperature shift was -0.772 °C.

In the case of HNRNPH1 (UniProt P31943), the melting temperature shift was -0.692 °C.

As for ELF1 (UniProt P32519), the melting temperature shift was -0.41 °C.

For ARL3 (UniProt P36405), the melting temperature shift was -2.75 °C.

The assay is the same for the next values; noted with them: A375; MBE1 concentration: 1 uM.
For the target UniProt P22304, the melting temperature shift amounted to 2.76 °C.

On to RXRB (UniProt P28702), for which the melting temperature shift was -0.538 °C.

As to SDHB (UniProt P21912), the melting temperature shift was -2.99 °C.

For UniProt P27815, the melting temperature shift is 3.27 °C.

Consider DNMT1 (UniProt P26358), for which the melting temperature shift was -0.0427 °C.

As to UniProt P27986, the melting temperature shift worked out at 0.507 °C.

Regarding SRI (UniProt P30626), the melting temperature shift was -0.845 °C.

Turning to RPL22 (UniProt P35268), the melting temperature shift is -0.244 °C.

With ARRB2 (UniProt P32121), the melting temperature shift is 0.0244 °C.

Consider RPA3 (UniProt P35244), for which the melting temperature shift amounted to 2.1 °C.

UQCRC1 (UniProt P31930): the melting temperature shift was -0.202 °C.

Regarding RAB5A (UniProt P20339), the melting temperature shift was 0.331 °C.

With RBMS1 (UniProt P29558), the melting temperature shift was -2.05 °C.

For UniProt P35080, the melting temperature shift stood at 1.44 °C.

TYK2 (UniProt P29597): the melting temperature shift worked out at 0.113 °C.

Regarding UniProt P23378, the melting temperature shift was -1.13 °C.

In the case of BCKDHB (UniProt P21953), the melting temperature shift came to 0.951 °C.

In the case of UniProt P21127, the melting temperature shift is -0.167 °C.

For UniProt P23443, the melting temperature shift is 0.318 °C.

Turning to TTK (UniProt P33981), the melting temperature shift was -0.988 °C.

On to CTNNB1 (UniProt P35222), for which the melting temperature shift was 0.134 °C.

On to DTYMK (UniProt P23919), for which the melting temperature shift was 1.11 °C.

Regarding FDXR (UniProt P22570), the melting temperature shift was -0.0122 °C.

In the case of TUBG1 (UniProt P23258), the melting temperature shift was -0.148 °C.

Take RASA1 (UniProt P20936): the melting temperature shift worked out at 0.301 °C.

Turning to UniProt P31323, the melting temperature shift came out at 0.446 °C.

On to ATIC (UniProt P31939), for which the melting temperature shift worked out at 0.872 °C.

In the case of CALR (UniProt P27797), the melting temperature shift was 0.282 °C.

Regarding MUT (UniProt P22033), the melting temperature shift came to 0.598 °C.

Take APC (UniProt P25054): the melting temperature shift was -0.751 °C.

Take SCP2 (UniProt P22307): the melting temperature shift was -2.25 °C.

CHML (UniProt P26374): the melting temperature shift was -0.208 °C.

Regarding ADD1 (UniProt P35611), the melting temperature shift was 1.1 °C.

ITGA6 (UniProt P23229): the melting temperature shift is 0.51 °C.

Consider GTF2E1 (UniProt P29083), for which the melting temperature shift was -0.485 °C.

HNRNPH1 (UniProt P31943): the melting temperature shift was -0.452 °C.

Take ELF1 (UniProt P32519): the melting temperature shift is -1.1 °C.

In the case of ARL3 (UniProt P36405), the melting temperature shift is 0.888 °C.
